Assay results reported in patent publication US20260266848A1, “COMPOSITIONS AND METHODS FOR DIAGNOSING AND TREATING DYSTONIA” (Duke University, priority 2023, published 2026).

Tested on: DYT1 patient plasma derived EVs
Assay: Plasma-derived EV proteomics (ExoQuick ULTRA, DIA LC/MS/MS), DYT1 vs Healthy Controls
Parameters: species or system human
Settings: for Log2FC: DYT1 patients as compared to healthy controls; for Directionality / Log2_FC: Hs. Plasma EVs (DYT1/WT); for Log2_FC: protein level, human patient derived EVs by genotype; for Hs. Plasma EVs (DYT1/WT): directionality of protein change, human plasma derived EVs, DYT1 vs WT(HC); for Mean DYT1 / Mean HC: protein abundance; for Mean DYT1: DYT1 patients; for Mean HC: healthy controls (HC)
In short: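 Quantitative LC/MS/MS in data-independent acquisition on an Orbitrap Astral (4 m/z windows over m/z 380-980, HCD 27%), 500 ng of each EV sample. EVs were isolated from plasma by ExoQuick ULTRA, separated by EvoSep SPD30 gradient at 50 C.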

| Molecule | Log2FC | Directionality | Log2_FC | Hs. Plasma EVs (DYT1/WT) | Mean DYT1 | Mean HC |
| --- | --- | --- | --- | --- | --- | --- |
| HNRNPC (protein, UniProt P07910 2-306, looked up) Heterogeneous nuclear …: ASNVTNKTDPRSMNSRVFIGNLNTLVVKKSDVEAIFSKYGKIVGCSVHKGFAFVQYVNERNARAAVAGEDGRMIAGQVLDINLAAEPKVNRGKAGVKRSAAEMYGSVTEHPSPSPLLSSSFDLDYDFQRDYYDRMYSYPARVPPPPPIARAVVPSKRQRVSGNTSRRGKSGFNSKSGQRGSSKSGKLKGDDLQAIKKELTQIKQKVDSLLENLEKIEKEQSKQAVEMKNDKSEEEQSSSSVKKDETNVKMESEGGADDSAEEGDLLDDDDNEDRGDDQLELIKDDEKEAEEGEDDRDSANGEDDS | −0.7428 | DOWN | -0.7428 | DOWN | 7.723 | 8.47 |
| BZW2 (protein, UniProt Q9Y6E2 1-419, looked up) eIF5-mimic protein 1: MNKHQKPVLTGQRFKTRKRDEKEKFEPTVFRDTLVQGLNEAGDDLEAVAKFLDSTGSRLDYRRYADTLFDILVAGSMLAPGGTRIDDGDKTKMTNHCVFSANEDHETIRNYAQVFNKLIRRYKYLEKAFEDEMKKLLLFLKAFSETEQTKLAMLSGILLGNGTLPATILTSLFTDSLVKEGIAASFAVKLFKAWMAEKDANSVTSSLRKANLDKRLLELFPVNRQSVDHFAKYFTDAGLKELSDFLRVQQSLGTRKELQKELQERLSQECPIKEVVLYVKEEMKRNDLPETAVIGLLWTCIMNAVEWNKKEELVAEQALKHLKQYAPLLAVFSSQGQSELILLQKVQEYCYDNIHFMKAFQKIVVLFYKADVLSEEAILKWYKEAHVAKGKSVFLDQMKKFVEWLQNAEEESESEGEEN | – | DOWN | -0.7772 | DOWN | 3.536 | 4.31 |
| TOR3A (protein, UniProt Q9H497 26-397, looked up) Torsin-3A: ASRPWEGTDEPGSAWAWPGFQRLQEQLRAAGALSKRYWTLFSCQVWPDDCDEDEEAATGPLGWRLPLLGQRYLDLLTTWYCSFKDCCPRGDCRISNNFTGLEWDLNVRLHGQHLVQQLVLRTVRGYLETPQPEKALALSFHGWSGTGKNFVARMLVENLYRDGLMSDCVRMFIATFHFPHPKYVDLYKEQLMSQIRETQQLCHQTLFIFDEAEKLHPGLLEVLGPHLERRAPEGHRAESPWTIFLFLSNLRGDIINEVVLKLLKAGWSREEITMEHLEPHLQAEIVETIDNGFGHSRLVKENLIDYFIPFLPLEYRHVRLCARDAFLSQELLYKEETLDEIAQMMVYVPKEEQLFSSQGCKSISQRINYFLS | – | – | – | – | 8.654 | 8.16 |
| RNF39 (protein, UniProt Q9H2S5 1-420, looked up) RING finger protein 39: MWWRDLTRLRLWLKREAIPGEGRKAAKVNAGVGEKGIYTASSRGGPPSARSKAVTVVAEGAASRSWLSMDAPELGPGLVERLEQLATCPLCGGSFEDPVLLACEHSFCRACLARRWGTPPATGTEASPTACPCCGLPCPRRSLRSNVRLAVEVRISRELREKLAEPGARAGRRRGGRIPTMGCLDLPGEDMRKTWRRFEVPTSKSSNSEDDLPEDYPVVKKMLHRLTADLTLDPGTAHRRLLISADRRSVQLAPPGTPAPPDGPKRFDQLPAVLGAQGFGAGRHCWEVETADAASCRDSSGEDADDEESHYAVGAAGESVQRKGCVRLCPAGAVWAVEGRGGRLWALTAPEPTLLGGVEPPPRRIRVDLDWERGRVAFYDGRSLDLLYAFQAPGPLGERIFPLFCTCDPRAPLRIVPAES | – | – | – | – | 2.632 | 3.37 |
| RAP2B (protein, UniProt P61225 1-180, looked up) Ras-related protein Rap-2b: MREYKVVVLGSGGVGKSALTVQFVTGSFIEKYDPTIEDFYRKEIEVDSSPSVLEILDTAGTEQFASMRDLYIKNGQGFILVYSLVNQQSFQDIKPMRDQIIRVKRYERVPMILVGNKVDLEGEREVSYGEGKALAEEWSCPFMETSAKNKASVDELFAEIVRQMNYAAQPNGDEGCCSAC | 1.6659 | – | 1.666 | – | 5.827 | 4.16 |
| MFAP5 (protein, UniProt Q13361 22-173, looked up) Microfibrillar-associated …: IPLGVNSQRGDDVTQATPETFTEDPNLVNDPATDETVLAVLADIAPSTDDLASLSEKNTTAECWDEKFTCTRLYSVHRPVKQCIHQLCFTSLRRMYIVNKEICSRLVCKEHEAMKDELCRQMAGLPPRRLRRSNYFRLPPCENVDLQRPNGL | 1.3666 | – | – | – | 5.634 | 4.27 |
| ADAP2 (protein, UniProt Q9NPF8 1-381, looked up) Arf-GAP with dual PH …: MGDRERNKKRLLELLRAPDTGNAHCADCGAADPDWASYKLGIFICLNCCGVHRNFPDISRVKSVRLDFWDDSIVEFMIHNGNLRVKAKFEARVPAFYYIPQANDCLVLKEQWIRAKYERREFMADGETISLPGNREGFLWKRGRDNSQFLRRKFVLLAREGLLKYFTKEQGKSPKAVISIKDLNATFQTEKIGHPHGLQITYRRDGHTRNLFVYHESGKEIVDWFNALRAARLQYLKMAFPELPESELVPFLTRNYLKQGFMEKTGPKQKEPFKKRWFALDCHERRLLYYKNPLDAFEQGQVFLGNKEQGYEAYEDLPKGIRGNRWKAGLTIVTPERRFVLTCPSEKEQQEWLESLRGVLSSPLTPLNRLTASTESGRSSR | −0.2459 | – | – | – | 11.456 | 11.70 |
| MUCL1 (protein, UniProt Q96DR8 21-90, looked up) Mucin-like protein 1: NPTTAAPADTYPATGPADDEAPDAETTAAATTATTAAPTTATTAASTTARKDIPVLPKWVGDLPNGRVCP | – | – | – | – | 6.887 | 7.72 |
| GART (protein, UniProt P22102 2-1010, looked up) Trifunctional purine …: AARVLIIGSGGREHTLAWKLAQSHHVKQVLVAPGNAGTACSEKISNTAISISDHTALAQFCKEKKIEFVVVGPEAPLAAGIVGNLRSAGVQCFGPTAEAAQLESSKRFAKEFMDRHGIPTAQWKAFTKPEEACSFILSADFPALVVKASGLAAGKGVIVAKSKEEACKAVQEIMQEKAFGAAGETIVIEELLDGEEVSCLCFTDGKTVAPMPPAQDHKRLLEGDGGPNTGGMGAYCPAPQVSNDLLLKIKDTVLQRTVDGMQQEGTPYTGILYAGIMLTKNGPKVLEFNCRFGDPECQVILPLLKSDLYEVIQSTLDGLLCTSLPVWLENHTALTVVMASKGYPGDYTKGVEITGFPEAQALGLEVFHAGTALKNGKVVTHGGRVLAVTAIRENLISALEEAKKGLAAIKFEGAIYRKDVGFRAIAFLQQPRSLTYKESGVDIAAGNMLVKKIQPLAKATSRSGCKVDLGGFAGLFDLKAAGFKDPLLASGTDGVGTKLKIAQLCNKHDTIGQDLVAMCVNDILAQGAEPLFFLDYFSCGKLDLSVTEAVVAGIAKACGKAGCALLGGETAEMPDMYPPGEYDLAGFAVGAMERDQKLPHLERITEGDVVVGIASSGLHSNGFSLVRKIVAKSSLQYSSPAPDGCGDQTLGDLLLTPTRIYSHSLLPVLRSGHVKAFAHITGGGLLENIPRVLPEKLGVDLDAQTWRIPRVFSWLQQEGHLSEEEMARTFNCGVGAVLVVSKEQTEQILRDIQQHKEEAWVIGSVVARAEGSPRVKVKNLIESMQINGSVLKNGSLTNHFSFEKKKARVAVLISGTGSNLQALIDSTREPNSSAQIDIVISNKAAVAGLDKAERAGIPTRVINHKLYKNRVEFDSAIDLVLEEFSIDIVCLAGFMRILSGPFVQKWNGKMLNIHPSLLPSFKGSNAHEQALETGVTVTGCTVHFVAEDVDAGQIILQEAVPVKRGDTVATLSERVKLAEHKIFPAALQLVASGTVQLGENGKICWVKEE | – | DOWN | -0.918 | DOWN | 3.587 | 4.51 |
| NDNF (protein, UniProt Q8TB73 20-568, looked up) Protein NDNF: QKLPTRDEELFQMQIRDKAFFHDSSVIPDGAEISSYLFRDTPKRYFFVVEEDNTPLSVTVTPCDAPLEWKLSLQELPEDRSGEGSGDLEPLEQQKQQIINEEGTELFSYKGNDVEYFISSSSPSGLYQLDLLSTEKDTHFKVYATTTPESDQPYPELPYDPRVDVTSLGRTTVTLAWKPSPTASLLKQPIQYCVVINKEHNFKSLCAVEAKLSADDAFMMAPKPGLDFSPFDFAHFGFPSDNSGKERSFQAKPSPKLGRHVYSRPKVDIQKICIGNKNIFTVSDLKPDTQYYFDVFVVNINSNMSTAYVGTFARTKEEAKQKTVELKDGKITDVFVKRKGAKFLRFAPVSSHQKVTFFIHSCLDAVQIQVRRDGKLLLSQNVEGIQQFQLRGKPKAKYLVRLKGNKKGASMLKILATTRPTKQSFPSLPEDTRIKAFDKLRTCSSATVAWLGTQERNKFCIYKKEVDDNYNEDQKKREQNQCLGPDIRKKSEKVLCKYFHSQNLQKAVTTETIKGLQPGKSYLLDVYVIGHGGHSVKYQSKVVKTRKFC | – | – | 1.84 | – | 4.696 | 2.86 |
| LIPG (protein, UniProt Q9Y5X9 21-500, looked up) Endothelial lipase: SPVPFGPEGRLEDKLHKPKATQTEVKPSVRFNLRTSKDPEHEGCYLSVGHSQPLEDCSFNMTAKTFFIIHGWTMSGIFENWLHKLVSALHTREKDANVVVVDWLPLAHQLYTDAVNNTRVVGHSIARMLDWLQEKDDFSLGNVHLIGYSLGAHVAGYAGNFVKGTVGRITGLDPAGPMFEGADIHKRLSPDDADFVDVLHTYTRSFGLSIGIQMPVGHIDIYPNGGDFQPGCGLNDVLGSIAYGTITEVVKCEHERAVHLFVDSLVNQDKPSFAFQCTDSNRFKKGICLSCRKNRCNSIGYNAKKMRNKRNSKMYLKTRAGMPFRVYHYQMKIHVFSYKNMGEIEPTFYVTLYGTNADSQTLPLEIVERIEQNATNTFLVYTEEDLGDLLKIQLTWEGASQSWYNLWKEFRSYLSQPRNPGRELNIRRIRVKSGETQRKLTFCTEDPENTSISPGRELWFRKCRDGWRMKNETSPTVELP | – | DOWN | -0.982 | DOWN | 5.060 | 6.04 |
